Data: US9594047B2, “Potentiometric sensors and method for measuring intermolecular interactions” (Universiteit Antwerpen, priority 2013, dated 2017)

Test: Potentiometric FIA sensorgram, linearization method, rubber phase (PVC) coated sensor
Format: binding
Excerpt: The model is based on the assumption that the rate determining phenomenon is the adsorption of analyte A (second molecular species) to the surface receptor sites Rsurface: A+Rsurface⇄ARsurface (5) Receptor sites are occupied by the analyte are designated as Roccupied. The rate of adsorption can be expressed as νon: […]
Differential equation 6 can be solved to yield equations 8 and 10. In these equations, Roccupied is replaced by R, the concentration-related response (10^mV/S−1), as both are linearly related (see above). […]
[formula] Starting from the “association” part of the sensorgram, one can now plot dR/dt versus R. For a pseudo-first-order kinetics, this will yield a straight line with slope equal to slope=−(koncanalyte+koff) (12) Plotting this slope versus canalyte then yields a graph from which kon and koff can be calculated.
From kon and koff, Kassoc=kon/koff is obtained, from which Kdiss (=1/Kassoc) and the Gibbs free energy of interaction can be calculated (ΔG^0=−RT ln Kass). […]
The membrane potential was measured against an Orion 800500 Ross reference electrode (Ag/AgCl) using a high impedance (10^13Ω) home-made amplifier. The detection signals were recorded on a data station composed of a PC equipped with a 6013 NI DA converter and LabVIEW 7 (National Instruments, Austin, Tex.) based software. […]

Row | SMILES | ΔG value of interaction with the sensor surface material [kcal/mol]
1 | CCN(CC)CC(=O)Nc1c(C)cccc1C [Lidocaine, lidocaine] | 7.29
2 | CN(C)CCCN1c2ccccc2Sc2ccccc21 [Promazine] | 8.78
